Percent effect of library compounds

Amino acid sequences for entries named in this document (tags omitted). Residues count along the entry.
UniProt A4I591, 1-473: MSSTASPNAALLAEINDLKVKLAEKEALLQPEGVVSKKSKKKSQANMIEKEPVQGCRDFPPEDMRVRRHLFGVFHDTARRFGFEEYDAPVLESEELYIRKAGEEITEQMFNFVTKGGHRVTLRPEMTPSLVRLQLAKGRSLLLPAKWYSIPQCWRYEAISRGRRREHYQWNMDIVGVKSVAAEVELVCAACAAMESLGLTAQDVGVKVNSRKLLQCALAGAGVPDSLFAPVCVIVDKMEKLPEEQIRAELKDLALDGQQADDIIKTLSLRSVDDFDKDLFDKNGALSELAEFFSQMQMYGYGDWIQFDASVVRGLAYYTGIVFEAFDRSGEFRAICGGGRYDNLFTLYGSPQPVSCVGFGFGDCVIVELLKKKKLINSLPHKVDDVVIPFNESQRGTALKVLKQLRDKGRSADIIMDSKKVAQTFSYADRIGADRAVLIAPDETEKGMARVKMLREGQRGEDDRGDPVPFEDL
UniProt P9WPC5, whole entry: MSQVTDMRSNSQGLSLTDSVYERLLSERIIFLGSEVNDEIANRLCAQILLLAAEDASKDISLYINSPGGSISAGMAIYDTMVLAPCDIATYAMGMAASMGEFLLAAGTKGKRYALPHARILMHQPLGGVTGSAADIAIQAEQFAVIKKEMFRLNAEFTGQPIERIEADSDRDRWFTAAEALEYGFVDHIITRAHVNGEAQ
UniProt P9WPC3, whole entry partner: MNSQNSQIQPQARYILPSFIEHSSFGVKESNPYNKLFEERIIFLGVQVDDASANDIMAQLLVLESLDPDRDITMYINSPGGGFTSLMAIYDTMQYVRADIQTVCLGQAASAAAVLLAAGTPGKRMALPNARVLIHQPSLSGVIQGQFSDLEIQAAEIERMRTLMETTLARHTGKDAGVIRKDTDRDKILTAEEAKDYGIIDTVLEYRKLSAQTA

The filed quantity is “Percent Effect” (%).
The controls that fix the scale are not given in the record; negative values are as filed.
Compounds were drawn at random from those tested, without regard to their results.
Two or more numbers in one place are separate tests of the same structure; such repeats can differ widely.
A dash means the value is not listed here; it may have been measured.

LiHisRS: 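Enzyme assay of histidyl-tRNA synthetase; the read-out is not stated. Target: Histidine-tRNA ligase, Leishmania infantum (UniProt A4I591). Concentration: 30 µM. Higher reads as stronger inhibition (inferred: compounds with an IC50 in retests scored well above the rest). The assay is labelled LdHisRS but filed under L. infantum. About 69,000 compounds were tested under these conditions; 0.6% (about 410) showed 50% or more at least once.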
Toxoplasma: 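Assay of Toxoplasma gondii numbers, read through their beta-galactosidase reporter with a colour substrate. Concentration: 10 µM. The record gives no direction; the compounds picked for IC50 retests had high values, so higher reads as fewer parasites. About 67,000 compounds were tested under these conditions; 0.38% (about 260) showed 50% or more at least once.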
ClpP1P2: 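ClpP1P2, Mycobacterium tuberculosis (UniProt P9WPC5 and UniProt P9WPC3). Protease assay of ClpP1P2, read by the AMC dye that it sets free. Concentration: 50 µM. Direction is inferred from only a few compounds that gave an IC50; most scored high, so higher reads as stronger inhibition. Most other retested compounds had strongly negative values. About 69,000 compounds were tested under these conditions; 0.015% (about 10) showed 50% or more at least once.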
T. brucei: 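Whole-parasite assay of Trypanosoma brucei over 72 hours; the read-out is not stated. Concentration: 30 µM. Higher reads as stronger inhibition (inferred: compounds with an IC50 in retests scored well above the rest). Values scatter widely below zero; nearly all retest evidence comes from the higher of the two concentrations used. Size under these conditions: about 64,000 compounds, about 940 of them at 50% or above in at least one test.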
Leishmania in macrophages: 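Cell assay of Leishmania donovani living inside macrophages; the read-out is not stated. Compounds at 30 µM. Higher reads as stronger inhibition (inferred: compounds with an IC50 in retests scored well above the rest). About 69,000 compounds were tested under these conditions; 1.5% (about 1,000) showed 50% or more at least once.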

Compound,LiHisRS,Toxoplasma,ClpP1P2,T. brucei,Leishmania in macrophages
Cc1cccc(CN2C[C@@H](CN3CCCN(C)CC3)[C@@H](CO)C2)n1,0,-1.011,1.457,-78.4,-4.61
Cc1ccc2cccc(S(=O)(=O)N(C)CC3CCN(C)C3)c2n1 (stereo not shown),20.88,-10.41,-7.223,-7.866,2.268
CCN(C)S(=O)(=O)N1CCCC1CC(=O)c1cccs1 (stereo not shown),-4.839,-3.019,-12.84,-23.89,-28.93
CCCOc1cccc(CNC(=O)CN2CCN(C)CC2C)c1 (stereo not shown),15.38,3.985,1.201,14.72,28.06
O=C1NCCO[C@H]2CN(C(=O)CCc3ccc(Cl)cc3)CC[C@@H]12,-4,-,12.05,-,-
CCn1cnnc1C1CCN(C(=O)c2cc(C)c(C)s2)CC1,16.36,-31.37,-15.03,-39.33,-4.027
Cc1ccc(-c2noc(CN3CCOC(Cn4cncn4)C3)n2)cc1 (stereo not shown),3.077,0.4308,4.53,15.43,13.03
Cc1ccc(CN2CCOC3(CCCN(C(=O)c4ccco4)C3)C2)s1.O=C(O)C(F)(F)F (stereo not shown),-,-13.1,-,0.3396,16.3
Cc1noc(C)c1CN1CCc2ncnc(-c3cccnc3)c2CC1.O=C(O)C(F)(F)F.O=C(O)C(F)(F)F,-,-17.83,-,-89.54,26.97
[H][C@@]12CCCO[C@]1([H])[C@H](NS(C)(=O)=O)CN(C(=O)c1ccoc1C)C2,-,3.543,-,-18.13,5.729
Cc1ccc(CN2CCN(Cc3ccncc3)[C@@H]3CS(=O)(=O)C[C@@H]32)cc1,22.22,-,8.706,-,-
COc1ccc(CN2C[C@H]3CN(c4cncnc4)C(=O)[C@H]3C2)cc1,31.51,-,-5.781,-,-
CN(C)C(=O)N1CCN(Cc2cnn(C)c2)CC2(CNC(=O)C2)C1 (stereo not shown),3.008,-,6.843,-,-
CC(C)(CNC(=O)CCOc1cccc(F)c1)C(N)=O,15.2,-18.21,6.326,-49.63,-9.92
CCC1(O)CCCN(c2nc(C(C)(C)C)nc3c2cnn3C)C1 (stereo not shown),17.95,7.599,-0.3496,-,-0.7518
CC1CCN(C)c2ccccc2N1C(=O)c1ccc(=O)n(C)c1 (stereo not shown),14.17,-0.3425,-5.906,-18.06,13.41
Cc1cc(C)n(CC2CCCN2C(=O)c2cccc(C#N)c2)n1 (stereo not shown),16.51,7.164,-26.01,-,11.28
CC(=O)N1CCC2(CN(CC3CCCC3)C2)C1.O=C(O)C(F)(F)F,-,-21.41,-,-24.02,1.833
Cc1ccc(C(C(=O)N2CCC(Cc3noc(C)n3)CC2)N(C)C)cc1 (stereo not shown),11.48,4.331,-8.479,-55.01,40.32
CCc1noc(CNc2cc3c(cc2Cl)OCCO3)n1,9.677,0.5461,-12.41,-40.51,-9.732
COc1cc2c(nn1)CCN(Cc1noc(CC(C)C)n1)C2,20,4.222,-19.32,-13.64,11.39
CCC(CC)c1cc(C(=O)N2CCCC(n3cncn3)C2)on1 (stereo not shown),12.5,10.41,-10.82,-12.06,23.13
CN(C)c1cnn(CC(=O)N2Cc3ccccc3C2)c(=O)c1,11.57,3.937,1.759,12.86,8.967
COc1cc(N2CCCn3cnc(COCCO)c3C2)ncn1,-31.58,8.315,-15.16,-30.68,-19.32 and -9.19
COC(C)(C)CC(C)NCc1nncn1C1CCCCC1 (stereo not shown),3.03,4.266,-1.196,-18.9,10.73
O=C(O)C(F)(F)F.[H][C@]12CCN(C(=O)c3ccncc3F)C[C@@]1([H])OCCN(c1ncccn1)C2,-,-28.98,-,-237.2,24.23
COc1ccc(OC2CCN(C(=O)CCc3n[nH]c(N)n3)CC2)cc1,2.655,-5.578,-1.043,-3.779,22.87
CN(C)CCNC(=O)CCn1ncc2c(Cl)cccc21,15.52,5.589,0.8457,-13.57,55.96
O=C(c1ccc2sccc2c1)N1CCC(C(=O)O)(n2ccnc2)CC1,-11.43,16.3,-7.838,-74.07,1.839
Cc1nccn1CCCN1CCCC(c2nccn2CC2CCC2)C1 (stereo not shown),27.06,11.29,-0.3326,-1.083,28.26
c1cnc(N2CCOCC3(C2)CN(c2nccs2)CCO3)nc1 (stereo not shown),30,-,2.727,-,-
[H][C@@]12COC[C@]1(c1nnc(C3CC3)o1)CN(C(=O)c1cc(C)no1)C2,-,2.244,-,27.82,23.07
Cc1nn(C)c(C)c1NC(=O)CN1CCOC(Cn2cccn2)C1 (stereo not shown),13.22,0.8107,-7.56,5.449,7.584
CCCn1nc2c(cc1=O)CN(Cc1nc(CCOC)no1)CC2,48.08,3.971,-6.759,-3.716,4.454
CCn1cc(CNC2CCN(c3cccc(Cl)c3)C2)cn1 (stereo not shown),2.41,-2.947,-1.87,7.924,8.87
c1cnc(Nc2cc(CCC3CCNCC3)ccn2)cn1,10,-1.833,-12.82,35.17,-7.404
Cc1nn(C)c(N(C)C)c1CNCc1ccccc1Cn1ccnc1,0.8696,13.63,-11.76,3.252,15.6
O=S(=O)(Cc1ccc(F)c(Cl)c1)NCCOc1cccnc1,21.05,-12.28,-6.369,-37.11,-8.237
c1cc(CNCC2CNc3ccnn3C2)cc(Cn2cccn2)c1 (stereo not shown),14.29,-10.7,-21.31,6.102,21.61
CNC(=O)Cn1nnc(-c2cc3ccccc3o2)n1,2.679,-1.018,-1.618,-2.774,-7.93
CN1CCC2(CC1)CN(C(=O)c1cnccn1)Cc1ccccc12,0.9174,-,-7.435,-,-
CCOc1ccc(C(=O)N(C)C)cc1NC(=O)c1ccsc1,11.29,-6.884,-13.16,-53.01,27.81
CN(C)CCn1c2c(ccc1=O)CC(NC(=O)c1cnccn1)CC2.O=C(O)C(F)(F)F (stereo not shown),-,3.192,-,-54.7,16.12
CCOc1ccc(CNCC(O)c2ccccc2)cc1Cl.Cl (stereo not shown),-,-10.02,-,32.68,14.87

For reference, 5 entries once more:

Compound,LiHisRS,Toxoplasma,ClpP1P2,T. brucei,Leishmania in macrophages
Cc1nn(C)c(N(C)C)c1CNCc1ccccc1Cn1ccnc1,0.8696,13.63,-11.76,3.252,15.6
CN(C)CCn1c2c(ccc1=O)CC(NC(=O)c1cnccn1)CC2.O=C(O)C(F)(F)F (stereo not shown),-,3.192,-,-54.7,16.12
O=C(O)C(F)(F)F.[H][C@]12CCN(C(=O)c3ccncc3F)C[C@@]1([H])OCCN(c1ncccn1)C2,-,-28.98,-,-237.2,24.23
c1cnc(Nc2cc(CCC3CCNCC3)ccn2)cn1,10,-1.833,-12.82,35.17,-7.404
CN1CCC2(CC1)CN(C(=O)c1cnccn1)Cc1ccccc12,0.9174,-,-7.435,-,-

The values are deposited in ChEMBL (CHEMBL3988442, “University of Dundee, Small-Polar-MMV Screening Library” (2021)).